Results as given in PubChem BioAssay AID1794844 (National Center for Advancing Translational Sciences (NCATS), 2023).
Among all 2,800 compounds or so, fewer than 10 were called active. About 7% were inconclusive and are not listed. The call rests on the fitted dose curve; in most records, active means well fitted inhibition curve with a large enough effect; inconclusive means small, poorly fitted or top-dose-only effect; inactive means no such curve, though single readings can be large or run the other way. This is one part of the list.

Sequences of proteins named here, by UniProt entry; tags and fusion partners are left off. A change or cut given only in a name is not applied to a line headed by its entry.
UniProt C7C422: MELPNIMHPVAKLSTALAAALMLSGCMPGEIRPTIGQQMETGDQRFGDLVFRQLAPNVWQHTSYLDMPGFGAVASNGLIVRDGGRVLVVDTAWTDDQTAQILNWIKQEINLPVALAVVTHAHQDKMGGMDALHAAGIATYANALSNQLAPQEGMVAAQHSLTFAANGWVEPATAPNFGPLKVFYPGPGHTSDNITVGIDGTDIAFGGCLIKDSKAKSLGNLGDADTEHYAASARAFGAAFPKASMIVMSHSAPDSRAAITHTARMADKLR

biological target: Metallo-beta-lactamase type 2 (Klebsiella pneumoniae) (UniProt C7C422); test: qHTS to identify inhibitors of the New Delhi Metallo-beta-lactamase (NDM): Nitrocefin screen against the machine-based learning selections.; further: % of control where 0% means no effect; settings: NDM-1 enzyme, nitrocefin hydrolysis, absorbance 485 nm; activity, negative = inhibition: at the top concentration
How it was run: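 NDM-1 (2 nM final) in 50 mM HEPES pH 7.0, 1 uM Zn2SO4, 0.01% Tween20 was preincubated with compounds for >30 min. Nitrocefin (16.7 uM final) was read at 485 nm after 15 min, and meropenem (50 uM final) at 300 nm after 30 min.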

activity, negative = inhibition, inactive:
O=C(NC1CCN(c2cc(-c3cccs3)[nH]n2)C1)c1cccc(OC(F)(F)F)c1 (stereo not given) 10.1%
CCc1ncc(C(=O)N2CCN(c3ccc(Cl)c(Cl)c3)CC2)cn1 -4.54%
COc1ccc(S(=O)(=O)N2CC[C@H](NC(=O)c3ccncc3)C[C@H]2C(=O)N[C@@H](CC2CCCCC2)C(N)=O)cc1 9.28%
O=C(O)[C@H]1C[C@H](C(=O)NCc2ccccn2)CN(C(=O)CC2CCCC2)C1 -15.3%
CCc1nc2c(c(-c3ccc(Cl)cc3)n1)CCN(Cc1ccc(C#N)cc1)CC2 57%
Cc1cccc(O[C@H]2COCCN(C(=O)c3ccc(C(F)(F)F)cc3)C2)n1 -2.73% [at 57.5 µM]
Cc1ncsc1C1N(C2CCN(Cc3cn(C)c4ccccc34)CC2)C(=O)C12CCCC2 (stereo not given) 4.73%
Cc1cn(CC(=O)NC2CCOC3(CCOCC3)C2)c(=O)[nH]c1=O (stereo not given) -17.7%
Cc1cc(OCCN2CCOCC2)c(C)c2c1CC[C@@H]([C@H](C)C(=O)NC(C)(C)C)C2 -1.3% [at 57.5 µM]
Cc1cc(C[C@@H]2COC[C@@H]2NC(=O)CCCn2cnc3ccccc3c2=O)on1 0.692%
Cc1cc(S(=O)(=O)NCC2CCOCC2)ccc1F 3.46%
O=C(CCc1ccc2c(c1)OCO2)N[C@H](c1cccs1)C1CC(O)C1 (stereo not given in full) 4.14%
CC1=C[C@@H](CO)[C@H](C(C)C)C[C@H]1Cc1nnc(-c2ccc(N(C)C)cc2)o1 -0.177% [at 57.5 µM]
C[S+](=O)([O-])c1cccc(NC(=O)Cc2c[nH]c3ncc(-c4cccnc4)cc23)c1 2.15% [at 57.5 µM]
Cc1cccc2c1nc1n2[C@@H](CNC2CCCCC2)COC1 -5.68% [at 57.5 µM]
O=C(COc1ccccc1)N1CCOC[C@H](Oc2ccccc2)C1 -5.52% [at 57.5 µM]
CCc1cc(=O)n(CC(=O)Nc2ccc(C(C)C)cc2)c(N2CCOCC2)n1 4.41%
O=C(c1ccc(Oc2ccccc2)cc1)N1CCNc2cnc(Nc3cccnc3)nc2C1 0.502%
O=C(NC(C(=O)N1CCCCC1)C1CCN(C(=O)CCc2ccccc2)CC1)c1cccs1 (stereo not given) -6.05%
c1cncc(CN2CC[C@H](c3nc4ccccc4[nH]3)C2)c1 -0.866% [at 76.7 µM]
c1ccc(-c2[nH]nc3ncc(-c4cn[nH]c4)nc23)cc1 5.46% [at 76.7 µM]
Cc1ccc2nc([C@H]3CCN(C4CCC4)C3)[nH]c2c1 7.28% [at 76.7 µM]
c1cc(-c2n[nH]c(CNC3CCC4(CCNCC4)CC3)n2)ccn1 -24.3%
O=C(Nc1ccccc1)c1ccc(-c2cccc3c2CCNC3)o1 -3.33%
O=C1Nc2ccc(-c3ccc4c(c3)OCO4)cc2C(=O)N2CCN(C(=O)C3CCCC3)C[C@@H]12 1.59%
COc1ccc2[nH]c3c(c2c1)CCN(C)C31CCN(C(=O)c2ccc3ncccc3c2)CC1 3.35%
CC(=O)N1CCN([C@H]2[C@@H]3OC[C@@H](O3)[C@@H](NCc3cnc4ccccc4c3)[C@@H]2O)CC1 1.2% [at 57.5 µM]
O=C(NC[C@H]1O[C@H](Cc2cc(-c3ccc(F)cc3)on2)CC[C@@H]1O)c1ccncc1 -8.95% [at 57.5 µM]
O=C(C[C@@H]1CCNC[C@@H]1Cc1cc(CC2CCCCC2)on1)NCc1ccco1 -7.6% [at 57.5 µM]
Cc1noc2c(-c3cccnc3)cc(-c3cccs3)nc12 -1.29% [at 57.5 µM]
O=C(NCCc1cnc[nH]1)c1nc(-c2ccccc2)cc2[nH]ccc12 -8.19% [at 57.5 µM]
Cc1ccccc1-c1cnc2[nH]cc(CC(=O)NC3CC3)c2c1 5.23% [at 57.5 µM]
CCN(CC)C(=O)[C@@H]1CCC[C@@H](NC(=O)c2cncnc2)CN(C)C(=O)C1 -10.9% [at 57.5 µM]
O=C(NCCc1ccccn1)c1nc(-c2ccccc2)cc2[nH]ccc12 -3.53% [at 57.5 µM]
NCCN1C(=O)CC[C@H]2CN(C(=O)C3(c4ccccc4)CC3)CC[C@H]21 -19.8%
COc1ccc(CNC(=O)CC[C@H]2CNC(=O)[C@@H]3[C@@H](CCN3C(C)C)N2C)cc1 5.66% [at 57.5 µM]
CN(C)c1cccc(-c2cnc(Nc3cccc(N[S+](C)(=O)[O-])c3)c3c2CCO3)c1 -8.1% [at 57.5 µM]
CN1C[C@H](NCc2nccn2C)CCC[C@@H](C(=O)NCc2cc(F)cc(F)c2)CC1=O -6.36% [at 57.5 µM]
CC(C)(O)C#Cc1ccc(CN2CCC(CO)(CCCc3ccccc3)CC2)s1 -4.2%
Cn1c(CN2CCOCC2)nnc1C1CCCN(C(=O)CNC(N)=O)C1 (stereo not given) 4.77%
Oc1ccccc1CN1CCOC[C@H]1c1ncc(-c2cccc(Cl)c2)[nH]1 -3.86% [at 57.5 µM]
CN(C)c1cccc(NC(=O)Cc2c[nH]c3ncc(-c4ccccc4)cc23)c1 0.958% [at 57.5 µM]
CCNC(=O)[C@@H]1C[C@@H](NC(=O)c2csc(C)c2CC)CN1C1CCCC1 -2.27%
Cc1ccc(CN2C(=O)[C@@H]3C[C@@H](O)CN3C3(CN(Cc4ccncc4)C3)C2=O)o1 -5.19% [at 57.5 µM]
COc1ccc(-c2nc3c(c(-c4ccccc4)n2)CN(C(=O)c2cccc(Cl)c2)CC3)cc1 3.85%
Cc1nccnc1CN1CCC2(CC1)CCN(Cc1ncc[nH]1)CC2CO (stereo not given) -0.514%
Cn1c([C@H]2CCN(C(=O)COc3ccccc3)C2)nc2ccccc21 0.473% [at 57.5 µM]
O=C(Cc1c[nH]c2ncc(-c3ccccc3C(F)(F)F)cc12)NCc1cccnc1 6.71% [at 57.5 µM]
Cc1ccc2nc(C3CCCN(Cc4ccc(-c5cncnc5)cc4)C3)[nH]c(=O)c2c1 (stereo not given) 2%
COc1ccc(C2Cn3cnc(C(=O)N4CCC(C(=O)Nc5ccc(C)cc5C)CC4)c3CO2)cc1 (stereo not given) -4.23%
O[C@@H]1CC(CNCc2cccc(Cl)c2)(COc2ccccc2)C[C@@H]1O (stereo not given in full) -2.73% [at 57.5 µM]
CC1=C[C@@H](CN2CCN(c3ccccn3)CC2)[C@H](C(C)C)C[C@H]1Cc1nnc(-c2ccccc2)o1 2.88%
CC[C@@]1(O)CCN(C(=O)c2cccc(CCC(C)(C)O)c2)C[C@H]1O 8.67%
O=C(Cc1c[nH]c2ncc(-c3cccc(CO)c3)cc12)NCc1cccnc1 2.11% [at 57.5 µM]
CN(CCO)C[C@@H]1CN(C(=O)c2nc3ccccc3[nH]c2=O)C[C@@H]1CO -4.62%
CN1[C@@H](CCC(=O)N2CCN(c3ccccc3)CC2)CNC(=O)[C@@H]2[C@H]1CCN2CC(C)(C)C 9.96%
O=C(N[C@H](c1cccs1)C1CC(O)C1)C1CCN(C2CCOCC2)CC1 (stereo not given in full) 2.3%
COc1ccc(C(=O)N[C@H](Cc2ccccn2)C2CC(O)C2)cc1F (stereo not given in full) -4.5%
Cc1noc2c(Nc3ccc(C(N)=O)cc3)cc(-c3ccc(F)cc3)nc12 -6.6% [at 57.5 µM]
O=C(c1ccc2nccnc2c1)N1CCC2(CC1)Nc1ccccc1NC2=O -1.49%

Random excerpt: 5 compounds from above
activity, negative = inhibition, inactive:
Cc1ccc2nc(C3CCCN(Cc4ccc(-c5cncnc5)cc4)C3)[nH]c(=O)c2c1 (stereo not given) 2%
Cc1cccc2c1nc1n2[C@@H](CNC2CCCCC2)COC1 -5.68% [at 57.5 µM]
Cn1c([C@H]2CCN(C(=O)COc3ccccc3)C2)nc2ccccc21 0.473% [at 57.5 µM]
c1cc(-c2n[nH]c(CNC3CCC4(CCNCC4)CC3)n2)ccn1 -24.3%
CN(CCO)C[C@@H]1CN(C(=O)c2nc3ccccc3[nH]c2=O)C[C@@H]1CO -4.62%
